Test results taken from PMC10039067, “Temporal and spatial assembly of inner ear hair cell ankle link condensate through phase separation” (Nature Communications, 2023).
No constants are given. Whether binding was seen depends on the method and setting.

The chains behind the UniProt entries cited, without tags or fusion partners. Where a name states a change or a piece, a line headed by the entry shows the natural chain unless it says otherwise.
UniProt Q2QI47: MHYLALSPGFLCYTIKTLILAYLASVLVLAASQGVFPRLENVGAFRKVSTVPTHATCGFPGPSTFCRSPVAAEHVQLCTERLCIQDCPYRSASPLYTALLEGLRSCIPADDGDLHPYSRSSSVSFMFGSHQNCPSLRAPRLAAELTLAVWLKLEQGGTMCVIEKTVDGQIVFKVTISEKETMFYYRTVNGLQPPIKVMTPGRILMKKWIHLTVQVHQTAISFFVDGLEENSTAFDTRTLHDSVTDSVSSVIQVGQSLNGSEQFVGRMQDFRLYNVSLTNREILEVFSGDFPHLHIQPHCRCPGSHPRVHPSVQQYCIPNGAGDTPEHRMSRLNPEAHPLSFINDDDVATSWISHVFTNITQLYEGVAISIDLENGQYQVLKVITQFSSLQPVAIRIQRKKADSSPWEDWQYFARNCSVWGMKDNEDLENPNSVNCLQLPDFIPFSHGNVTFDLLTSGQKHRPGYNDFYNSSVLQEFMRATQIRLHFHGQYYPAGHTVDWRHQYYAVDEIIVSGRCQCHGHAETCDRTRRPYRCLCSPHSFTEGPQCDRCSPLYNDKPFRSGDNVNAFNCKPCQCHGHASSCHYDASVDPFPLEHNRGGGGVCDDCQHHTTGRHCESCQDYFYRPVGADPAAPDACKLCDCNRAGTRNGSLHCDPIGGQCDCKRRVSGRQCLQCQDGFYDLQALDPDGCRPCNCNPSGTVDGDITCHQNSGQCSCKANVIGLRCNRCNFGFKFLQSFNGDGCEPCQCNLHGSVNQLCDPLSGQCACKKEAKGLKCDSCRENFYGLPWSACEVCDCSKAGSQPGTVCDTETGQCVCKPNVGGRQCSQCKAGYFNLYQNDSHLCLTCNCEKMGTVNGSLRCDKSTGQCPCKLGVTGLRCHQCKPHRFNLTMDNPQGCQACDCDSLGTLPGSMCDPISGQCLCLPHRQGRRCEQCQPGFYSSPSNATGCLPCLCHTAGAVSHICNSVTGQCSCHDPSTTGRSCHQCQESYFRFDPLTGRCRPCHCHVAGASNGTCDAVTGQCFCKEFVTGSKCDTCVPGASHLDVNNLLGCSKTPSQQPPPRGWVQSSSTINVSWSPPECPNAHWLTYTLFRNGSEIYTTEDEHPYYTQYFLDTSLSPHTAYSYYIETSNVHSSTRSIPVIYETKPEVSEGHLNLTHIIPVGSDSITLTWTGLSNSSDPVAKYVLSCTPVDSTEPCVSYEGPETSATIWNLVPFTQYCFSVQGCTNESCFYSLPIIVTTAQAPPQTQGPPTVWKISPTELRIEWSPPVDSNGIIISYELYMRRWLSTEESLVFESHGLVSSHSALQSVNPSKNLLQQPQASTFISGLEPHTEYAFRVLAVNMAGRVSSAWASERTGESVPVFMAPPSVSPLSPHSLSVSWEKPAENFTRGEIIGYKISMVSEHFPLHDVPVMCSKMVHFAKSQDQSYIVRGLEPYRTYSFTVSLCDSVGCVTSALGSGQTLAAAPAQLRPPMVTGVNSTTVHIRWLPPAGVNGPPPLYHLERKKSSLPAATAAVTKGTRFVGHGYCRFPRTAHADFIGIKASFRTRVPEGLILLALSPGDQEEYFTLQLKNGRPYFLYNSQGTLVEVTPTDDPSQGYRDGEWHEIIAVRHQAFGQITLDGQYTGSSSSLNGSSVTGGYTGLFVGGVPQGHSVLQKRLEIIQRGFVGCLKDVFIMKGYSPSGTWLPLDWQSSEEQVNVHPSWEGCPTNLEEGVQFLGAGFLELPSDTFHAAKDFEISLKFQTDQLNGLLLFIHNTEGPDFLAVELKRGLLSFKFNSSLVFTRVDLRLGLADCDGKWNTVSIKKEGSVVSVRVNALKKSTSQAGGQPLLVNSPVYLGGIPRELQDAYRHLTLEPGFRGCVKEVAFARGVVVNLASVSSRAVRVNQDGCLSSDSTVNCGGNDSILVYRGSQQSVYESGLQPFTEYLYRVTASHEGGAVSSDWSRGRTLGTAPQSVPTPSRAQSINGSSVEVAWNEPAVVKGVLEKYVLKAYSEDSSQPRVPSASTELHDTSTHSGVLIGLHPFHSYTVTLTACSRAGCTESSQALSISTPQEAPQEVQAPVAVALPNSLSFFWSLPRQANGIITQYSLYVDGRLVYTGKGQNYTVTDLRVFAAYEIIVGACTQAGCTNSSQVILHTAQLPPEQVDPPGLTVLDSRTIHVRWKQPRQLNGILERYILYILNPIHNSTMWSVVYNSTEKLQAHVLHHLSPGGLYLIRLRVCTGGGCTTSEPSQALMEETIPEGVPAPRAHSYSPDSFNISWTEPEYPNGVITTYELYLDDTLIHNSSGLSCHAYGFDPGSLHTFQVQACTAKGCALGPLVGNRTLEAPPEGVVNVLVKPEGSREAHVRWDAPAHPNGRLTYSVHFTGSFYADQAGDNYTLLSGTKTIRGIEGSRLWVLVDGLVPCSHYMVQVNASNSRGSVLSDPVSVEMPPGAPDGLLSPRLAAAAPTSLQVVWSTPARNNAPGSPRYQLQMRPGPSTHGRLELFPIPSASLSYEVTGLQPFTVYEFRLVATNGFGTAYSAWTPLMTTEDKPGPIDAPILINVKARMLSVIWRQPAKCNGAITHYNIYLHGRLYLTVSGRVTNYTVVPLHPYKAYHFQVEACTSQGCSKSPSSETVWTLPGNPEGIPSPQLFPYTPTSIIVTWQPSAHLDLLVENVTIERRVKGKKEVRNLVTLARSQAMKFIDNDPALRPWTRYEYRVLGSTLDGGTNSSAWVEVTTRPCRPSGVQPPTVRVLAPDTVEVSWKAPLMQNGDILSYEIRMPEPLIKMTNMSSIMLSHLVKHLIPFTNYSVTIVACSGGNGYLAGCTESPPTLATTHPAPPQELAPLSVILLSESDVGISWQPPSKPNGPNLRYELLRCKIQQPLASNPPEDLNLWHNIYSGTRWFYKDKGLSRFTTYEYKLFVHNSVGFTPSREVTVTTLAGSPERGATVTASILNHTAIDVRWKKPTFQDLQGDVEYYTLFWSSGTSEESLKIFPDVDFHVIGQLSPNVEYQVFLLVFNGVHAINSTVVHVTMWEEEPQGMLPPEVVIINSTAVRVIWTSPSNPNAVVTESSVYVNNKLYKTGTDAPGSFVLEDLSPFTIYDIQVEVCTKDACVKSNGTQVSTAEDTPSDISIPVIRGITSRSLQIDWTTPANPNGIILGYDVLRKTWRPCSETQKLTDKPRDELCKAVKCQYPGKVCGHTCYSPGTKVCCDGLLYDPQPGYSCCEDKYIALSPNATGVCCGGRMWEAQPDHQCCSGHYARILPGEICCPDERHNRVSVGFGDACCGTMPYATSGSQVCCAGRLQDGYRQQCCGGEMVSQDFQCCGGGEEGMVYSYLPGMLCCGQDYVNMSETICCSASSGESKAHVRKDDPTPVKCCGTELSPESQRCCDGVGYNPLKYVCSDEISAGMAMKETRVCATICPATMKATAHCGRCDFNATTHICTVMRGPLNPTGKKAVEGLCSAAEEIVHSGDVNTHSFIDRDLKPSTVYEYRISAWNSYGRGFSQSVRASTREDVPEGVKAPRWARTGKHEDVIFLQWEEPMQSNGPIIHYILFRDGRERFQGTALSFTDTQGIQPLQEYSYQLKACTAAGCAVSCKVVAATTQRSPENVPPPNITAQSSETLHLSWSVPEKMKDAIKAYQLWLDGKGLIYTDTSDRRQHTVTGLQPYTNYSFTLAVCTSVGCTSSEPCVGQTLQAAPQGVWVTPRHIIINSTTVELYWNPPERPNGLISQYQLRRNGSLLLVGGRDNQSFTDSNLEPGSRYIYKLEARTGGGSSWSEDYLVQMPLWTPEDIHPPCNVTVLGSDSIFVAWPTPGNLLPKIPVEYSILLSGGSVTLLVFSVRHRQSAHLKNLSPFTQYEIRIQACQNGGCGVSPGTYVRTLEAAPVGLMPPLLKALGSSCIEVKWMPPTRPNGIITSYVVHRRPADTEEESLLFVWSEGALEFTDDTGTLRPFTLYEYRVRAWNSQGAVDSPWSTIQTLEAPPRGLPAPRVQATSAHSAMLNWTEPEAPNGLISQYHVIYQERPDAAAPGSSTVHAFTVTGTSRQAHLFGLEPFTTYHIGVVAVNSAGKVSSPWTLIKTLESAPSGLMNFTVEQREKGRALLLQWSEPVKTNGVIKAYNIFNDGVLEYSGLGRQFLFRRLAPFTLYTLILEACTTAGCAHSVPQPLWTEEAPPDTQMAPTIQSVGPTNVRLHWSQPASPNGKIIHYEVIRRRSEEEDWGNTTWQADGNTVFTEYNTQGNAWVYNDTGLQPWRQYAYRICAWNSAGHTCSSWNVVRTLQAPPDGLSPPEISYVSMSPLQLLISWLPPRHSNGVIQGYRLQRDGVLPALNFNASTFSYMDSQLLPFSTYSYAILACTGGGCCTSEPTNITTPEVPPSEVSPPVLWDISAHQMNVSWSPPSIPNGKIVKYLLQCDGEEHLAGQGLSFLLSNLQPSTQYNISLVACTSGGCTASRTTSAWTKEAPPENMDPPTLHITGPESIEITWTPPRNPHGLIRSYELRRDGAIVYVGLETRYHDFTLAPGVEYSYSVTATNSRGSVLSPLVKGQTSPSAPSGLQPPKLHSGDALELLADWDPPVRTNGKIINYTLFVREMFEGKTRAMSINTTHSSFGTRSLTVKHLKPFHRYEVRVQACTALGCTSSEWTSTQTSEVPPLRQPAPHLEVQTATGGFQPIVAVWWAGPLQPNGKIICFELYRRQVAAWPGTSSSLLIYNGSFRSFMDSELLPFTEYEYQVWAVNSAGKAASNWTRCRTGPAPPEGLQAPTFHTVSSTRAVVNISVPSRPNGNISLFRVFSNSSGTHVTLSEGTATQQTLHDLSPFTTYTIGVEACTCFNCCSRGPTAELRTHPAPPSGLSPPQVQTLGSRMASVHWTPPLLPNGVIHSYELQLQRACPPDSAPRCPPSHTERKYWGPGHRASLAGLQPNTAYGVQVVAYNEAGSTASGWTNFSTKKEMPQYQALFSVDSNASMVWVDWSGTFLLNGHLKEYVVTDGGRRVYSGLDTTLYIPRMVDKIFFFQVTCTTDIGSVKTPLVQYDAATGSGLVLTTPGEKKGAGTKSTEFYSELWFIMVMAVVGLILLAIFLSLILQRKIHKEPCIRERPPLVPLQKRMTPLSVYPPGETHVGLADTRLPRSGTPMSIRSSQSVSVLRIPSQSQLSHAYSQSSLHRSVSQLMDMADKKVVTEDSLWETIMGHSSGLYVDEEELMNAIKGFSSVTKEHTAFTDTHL

Tests used:
WHRN NPDZ12 = target: T1, WHRN NPDZ12 (UniProt Q9P202); assay: ITC; MicroCal iTC200, 25 °C; 50 mM tris pH 7.5-8.0, 300 mM NaCl, 1 mM DTT, 1 mM EDTA; cell 20–50 µM, syringe 400–800 µM; one-site binding model; both purified
T1 sequence: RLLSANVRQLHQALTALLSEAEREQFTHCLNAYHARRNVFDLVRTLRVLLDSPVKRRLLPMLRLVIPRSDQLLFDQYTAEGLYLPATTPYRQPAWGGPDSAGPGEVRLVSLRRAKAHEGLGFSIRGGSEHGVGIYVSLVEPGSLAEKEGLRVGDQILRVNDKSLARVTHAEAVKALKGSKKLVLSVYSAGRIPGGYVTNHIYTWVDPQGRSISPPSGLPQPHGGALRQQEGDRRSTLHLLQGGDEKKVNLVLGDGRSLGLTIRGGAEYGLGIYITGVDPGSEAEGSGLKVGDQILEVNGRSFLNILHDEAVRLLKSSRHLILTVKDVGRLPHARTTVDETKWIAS

PDZD7 PDZ12 = target: T2, PDZD7 PDZ12 (UniProt E9Q9W7); assay: as above
T2 sequence: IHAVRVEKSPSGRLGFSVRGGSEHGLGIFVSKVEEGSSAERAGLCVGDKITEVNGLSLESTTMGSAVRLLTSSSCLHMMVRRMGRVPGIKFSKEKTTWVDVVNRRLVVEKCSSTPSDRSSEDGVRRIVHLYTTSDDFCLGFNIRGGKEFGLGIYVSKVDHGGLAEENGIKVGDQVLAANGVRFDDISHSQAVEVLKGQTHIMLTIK

Substance	binding (WHRN NPDZ12)	binding (PDZD7 PDZ12)
USH2A-CT △PBM (from UniProt Q2QI47) (domain or fragment)	no binding (tested: cell 20–50 µM, syringe 400–800 µM)	
USH2A-CT(S) △PBM (from UniProt Q2QI47) (domain or fragment)		no binding (tested: cell 20–50 µM, syringe 400–800 µM)
